Where a name gives a salt, the structure may show the parent alone. At least one structure is not confirmed: it was looked up by name or label, or the drawing left a doubt.
System: mice (Swiss strain)
Test: in vivo bone tropism test in young mice, 4 weeks of treatment
Conditions: 0.35 μmol/kg sub-cutaneously twice a week, after 4 weeks, versus control mice; FIG. 2

Structure (SMILES): O=P(O)(O)C(O)(Cn1ccnc1)P(=O)(O)O [Disodium salt of zoledronic acid, zoledronic acid]
- mineral density on radiographs: increase in the mineral density

— patent US8361993B2, “Hydroxy-bisphosphonic acid derivatives as vector targeting bone tissue” (Universite de Nantes, priority 2008, dated 2013)
